Experimental data from US20190022016A1, “COMPOSITIONS FOR SUSTAINED RELEASE OF ANTI-GLAUCOMA AGENTS TO CONTROL INTRAOCULAR PRESSURE” (The Johns Hopkins University, priority 2016, published 2019).
Some results were stated once for a whole list of compounds, not compound by compound.

Test: Microparticle size and drug loading
Type: physicochemical

Molecule CCN[C@H]1CN(CCCOC)S(=O)(=O)c2sc(S(N)(=O)=O)cc21 [brinzolamide] has a drug loading of less than 1%.
Molecule CCN[C@H]1C[C@H](C)S(=O)(=O)c2sc(S(N)(=O)=O)cc21 [dorzolamide] has a drug loading of less than 1%.
